The list is a part of this screen's results and no random one: it gathers tests that were run many times, whatever their T/C, doses with no T/C, and many T/C values between a quarter and a half above the control. Other doses and runs of a compound stand elsewhere. T/C is the treated group as % of the vehicle group. Some entries give survivors of the animals treated and no T/C: the source holds a T/C of zero for them, seemingly a mark for toxic or unscored doses. Some survivor counts are full or nearly so, which does not show that the dose was tolerated: survival well below the control is almost never listed, so the zero probably covers shortened survival too. Survivors were counted at the toxicity check, usually on the fifth day, unless a day is given; later deaths do not show. Schedule codes are those of the source, read here as Q, the interval in days (D) or hours (H), X, the number of doses. Where survival is the endpoint, the PubChem record calls one and a half times the control and up active, and a quarter to a half above the control has no call in these data; cut-offs in other NCI protocols can differ. Some T/C values carry the count of animals alive at the toxicity check (mostly the fifth day); where none is given, no animal had died by that day. Some entries hold several experiments; the values are given in rising order.
System: BDF1 mice, P388 leukemia ip, median survival T/C
Assay: NCI In Vivo Anticancer Drug Screen. Data for tumor model P388 Leukemia (intraperitoneal) in B6D2F1 (BDF1) mice
Conditions: T/C endpoint: median survival time, higher T/C = longer survival
Procedure, shortened: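 Compound-treated tumour-bearing mice were compared with vehicle-treated controls. Survival was recorded, and the value is the treated-group measurement divided by the control-group measurement (T/C).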

[1] = dose: 200.0 mg/kg/injection, schedule: Q04DX003 (ip), vehicle: saline with Tween-80
[2] = dose: 200.0 mg/kg/injection, schedule: Q04DX003 (ip), vehicle: saline
[3] = dose: 100.0 mg/kg/injection, schedule: Q01DX009 (ip), vehicle: saline
[4] = dose: 200.0 mg/kg/injection, schedule: Q01DX005 (ip), vehicle: saline with Tween-80
[5] = dose: 50.0 mg/kg/injection, schedule: Q01DX009 (ip), vehicle: saline

## N#CC1CCCC1=O (configuration not stated)
dose: 20.0 mg/kg/injection, schedule: Q01DX009 (ip), vehicle: saline
  survivor count: 5 of 6

## C[N+](C)(Cn1ncc2ccc([N+](=O)[O-])cc21)Cn1ncc2ccc([N+](=O)[O-])cc21
[1]
  survivor count: 4 of 6
dose: 400.0 mg/kg/injection, schedule: Q04DX003 (ip), vehicle: saline with Tween-80
  survivor count: 0 of 6

## CNC/C(C)=C/Br
dose: 115.0 mg/kg/injection, schedule: Q01DX009 (ip), vehicle: saline
  survivor count: 1 of 6
dose: 170.0 mg/kg/injection, schedule: Q01DX009 (ip), vehicle: saline
  survivor count: 0 of 6
dose: 255.0 mg/kg/injection, schedule: Q01DX001 (ip), vehicle: saline
  survivor count: 6 of 6

## OCC(F)(F)C(F)(F)C(F)(F)CO
dose: 88.0 mg/kg/injection, schedule: Q04DX003 (ip), vehicle: saline
  T/C: 143 % of control
dose: 132.0 mg/kg/injection, schedule: Q04DX003 (ip), vehicle: saline
  T/C: 139 % of control
[2]
  T/C: 139 % of control
dose: 300.0 mg/kg/injection, schedule: Q04DX003 (ip), vehicle: saline
  T/C: 134 % of control

## COc1cccc(NN)c1
[3]
  survivor count: 6 of 6
[2]
  survivor count: 5 of 6

## CC1(c2cccs2)C(=O)N(Cl)C(=O)N1Cl (configuration not stated)
dose: 50.0 mg/kg/injection, schedule: Q04DX003 (ip), vehicle: saline
  T/C: 127 % of control
[2]
  survivor count: 6 of 6
dose: 400.0 mg/kg/injection, schedule: Q01DX009 (ip), vehicle: saline
  survivor count: 2 of 6
dose: 400.0 mg/kg/injection, schedule: Q04DX003 (ip), vehicle: saline
  survivor count: 2 of 6

## CCOC(=O)/C(N=O)=C(\O)c1ccc2ccccc2n1
dose: 12.5 mg/kg/injection, schedule: Q01DX009 (ip), vehicle: water
  T/C: 128 % of control

## NC(=O)NC1OC(COC(=O)c2ccccc2)C(OC(=O)c2ccccc2)C1OC(=O)c1ccccc1 (configuration not stated)
[1]
  survivor count: 6 of 6

## O=S(=O)(Cc1ccc(Cl)cc1)c1nc2ccccc2s1
[4]
  survivor count: 3 of 5

## CCCCSc1cc(Cc2cc(C)ccc2O)c(O)c(Cc2cc(C)ccc2O)c1
dose: 200.0 mg/kg/injection, schedule: Q01DX009 (ip), vehicle: other
  T/C: 125 % of control

## COc1ccc(OC)c([N+](=O)[O-])c1
dose: 100.0 mg/kg/injection, schedule: Q01DX009 (ip), vehicle: Klucel (hydroxypropylcellulose) (HPC)
  survivor count: 6 of 6

## CC(=O)Oc1cccnc1C(C#N)C#N
dose: 100.0 mg/kg/injection, schedule: Q01DX005 (ip), vehicle: saline with Tween-80
  survivor count: 1 of 6
[4]
  survivor count: 0 of 6

## Cc1ccc2scc3c4ccccc4nc-3c2c1
dose: 25.0 mg/kg/injection, schedule: Q01DX009 (ip), vehicle: Klucel (hydroxypropylcellulose) (HPC)
  survivor count: 3 of 6
dose: 50.0 mg/kg/injection, schedule: Q01DX009 (ip), vehicle: Klucel (hydroxypropylcellulose) (HPC)
  survivor count: 3 of 6
[5]
  T/C: 92, 122 [5 of 6 alive], 127 % of control
  survivor count: 4 of 6
dose: 75.0 mg/kg/injection, schedule: Q01DX009 (ip), vehicle: Klucel (hydroxypropylcellulose) (HPC)
  survivor count: 0 of 6
[3]
  survivor count: 0 of 6
dose: 110.0 mg/kg/injection, schedule: Q01DX009 (ip), vehicle: saline
  survivor count: 4 of 6
dose: 112.0 mg/kg/injection, schedule: Q01DX009 (ip), vehicle: Klucel (hydroxypropylcellulose) (HPC)
  survivor count: 0 of 6
dose: 225.0 mg/kg/injection, schedule: Q04DX003 (ip), vehicle: saline
  survivor count: 2 of 6

## CS(=O)(=O)OCCF
dose: 6.0 mg/kg/injection, schedule: Q01DX009 (ip), vehicle: saline with Tween-80
  survivor count: 4 of 6
dose: 6.0 mg/kg/injection, schedule: Q04DX003 (ip), vehicle: saline
  T/C: 136 % of control [4 of 6 alive]

## C1CC[N-]CC1.Oc1ccccc1C=NCCN=Cc1ccccc1O.[CH3-].[Rh+2]
dose: 50.0 mg/kg/injection, schedule: Q04DX003 (ip), vehicle: saline with Tween-80
  T/C: 127 % of control
dose: 100.0 mg/kg/injection, schedule: Q04DX003 (ip), vehicle: saline with Tween-80
  T/C: 144 % of control
[1]
  T/C: 144 % of control

Reference: PubChem BioAssay AID328 (DTP/NCI, 2004)
